The record followed here is the supplement of paper PMC12819154, “High-throughput peptide-centric local stability assay extends protein–ligand identification to membrane proteins, tissues and bacteria” (Nature Structural & Molecular Biology, 2025).

Protein sequences, listed by entry. Tags and fused reporters are not part of them. Lines headed by an entry give the natural chain unless they say otherwise; changes in a name come on top.
UniProt Q3U2S4: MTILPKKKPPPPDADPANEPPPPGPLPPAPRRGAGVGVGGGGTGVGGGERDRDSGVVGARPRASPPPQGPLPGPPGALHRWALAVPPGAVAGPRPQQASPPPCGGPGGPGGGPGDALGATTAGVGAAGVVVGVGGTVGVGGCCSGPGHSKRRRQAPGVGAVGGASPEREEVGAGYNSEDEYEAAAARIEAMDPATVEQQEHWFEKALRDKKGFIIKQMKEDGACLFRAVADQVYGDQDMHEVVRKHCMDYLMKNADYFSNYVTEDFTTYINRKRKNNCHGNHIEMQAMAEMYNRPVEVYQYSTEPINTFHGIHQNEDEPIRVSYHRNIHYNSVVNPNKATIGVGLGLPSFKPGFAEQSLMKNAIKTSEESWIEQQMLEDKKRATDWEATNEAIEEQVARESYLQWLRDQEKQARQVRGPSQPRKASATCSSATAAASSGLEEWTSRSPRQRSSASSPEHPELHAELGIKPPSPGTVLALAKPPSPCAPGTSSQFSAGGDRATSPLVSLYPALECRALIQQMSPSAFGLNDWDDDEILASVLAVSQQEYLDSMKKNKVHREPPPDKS
UniProt Q14DQ1: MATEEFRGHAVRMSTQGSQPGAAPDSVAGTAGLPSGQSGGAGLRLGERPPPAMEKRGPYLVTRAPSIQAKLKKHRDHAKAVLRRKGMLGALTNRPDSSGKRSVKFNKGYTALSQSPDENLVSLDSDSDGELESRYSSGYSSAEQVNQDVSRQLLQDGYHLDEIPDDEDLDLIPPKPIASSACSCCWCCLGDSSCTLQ
UniProt Q3TRM4: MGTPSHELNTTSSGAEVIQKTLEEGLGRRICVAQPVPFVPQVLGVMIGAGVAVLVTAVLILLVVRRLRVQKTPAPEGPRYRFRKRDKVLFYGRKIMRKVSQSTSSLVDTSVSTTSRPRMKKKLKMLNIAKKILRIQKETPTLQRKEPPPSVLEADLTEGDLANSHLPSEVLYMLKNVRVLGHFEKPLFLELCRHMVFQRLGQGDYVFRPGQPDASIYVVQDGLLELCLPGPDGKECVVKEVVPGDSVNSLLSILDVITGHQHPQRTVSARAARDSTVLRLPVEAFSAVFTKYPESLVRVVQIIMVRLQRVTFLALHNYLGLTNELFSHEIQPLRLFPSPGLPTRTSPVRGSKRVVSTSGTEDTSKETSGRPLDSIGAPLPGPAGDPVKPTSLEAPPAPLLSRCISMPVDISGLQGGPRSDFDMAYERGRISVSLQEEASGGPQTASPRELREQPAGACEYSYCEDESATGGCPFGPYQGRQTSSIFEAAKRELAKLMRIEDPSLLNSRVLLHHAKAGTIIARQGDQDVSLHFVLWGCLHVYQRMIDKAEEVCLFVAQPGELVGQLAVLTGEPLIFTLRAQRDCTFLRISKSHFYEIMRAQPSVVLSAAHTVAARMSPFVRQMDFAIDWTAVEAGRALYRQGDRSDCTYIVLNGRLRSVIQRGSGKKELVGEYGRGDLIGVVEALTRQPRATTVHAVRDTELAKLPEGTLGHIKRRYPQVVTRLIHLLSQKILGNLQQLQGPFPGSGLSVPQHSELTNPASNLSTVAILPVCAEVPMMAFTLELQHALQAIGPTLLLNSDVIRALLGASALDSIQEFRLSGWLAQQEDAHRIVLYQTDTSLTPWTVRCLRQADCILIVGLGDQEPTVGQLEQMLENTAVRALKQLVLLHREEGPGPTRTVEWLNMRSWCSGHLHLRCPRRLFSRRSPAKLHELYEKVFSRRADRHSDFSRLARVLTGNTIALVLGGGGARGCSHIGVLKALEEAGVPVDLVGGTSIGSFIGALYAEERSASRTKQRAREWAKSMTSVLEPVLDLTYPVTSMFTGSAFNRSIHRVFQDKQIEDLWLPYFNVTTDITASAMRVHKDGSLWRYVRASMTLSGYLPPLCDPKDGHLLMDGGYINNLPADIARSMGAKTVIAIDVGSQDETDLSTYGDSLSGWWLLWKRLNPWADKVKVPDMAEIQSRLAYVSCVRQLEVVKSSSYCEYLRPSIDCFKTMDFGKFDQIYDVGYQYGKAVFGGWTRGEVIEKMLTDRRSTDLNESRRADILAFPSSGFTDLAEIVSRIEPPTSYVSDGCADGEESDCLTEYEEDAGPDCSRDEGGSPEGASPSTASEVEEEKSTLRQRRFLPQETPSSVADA
UniProt Q3TGF2: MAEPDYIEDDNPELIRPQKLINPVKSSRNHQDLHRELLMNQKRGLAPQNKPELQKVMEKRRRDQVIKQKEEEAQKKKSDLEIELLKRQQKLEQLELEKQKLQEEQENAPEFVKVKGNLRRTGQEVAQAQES
UniProt Q3TV65: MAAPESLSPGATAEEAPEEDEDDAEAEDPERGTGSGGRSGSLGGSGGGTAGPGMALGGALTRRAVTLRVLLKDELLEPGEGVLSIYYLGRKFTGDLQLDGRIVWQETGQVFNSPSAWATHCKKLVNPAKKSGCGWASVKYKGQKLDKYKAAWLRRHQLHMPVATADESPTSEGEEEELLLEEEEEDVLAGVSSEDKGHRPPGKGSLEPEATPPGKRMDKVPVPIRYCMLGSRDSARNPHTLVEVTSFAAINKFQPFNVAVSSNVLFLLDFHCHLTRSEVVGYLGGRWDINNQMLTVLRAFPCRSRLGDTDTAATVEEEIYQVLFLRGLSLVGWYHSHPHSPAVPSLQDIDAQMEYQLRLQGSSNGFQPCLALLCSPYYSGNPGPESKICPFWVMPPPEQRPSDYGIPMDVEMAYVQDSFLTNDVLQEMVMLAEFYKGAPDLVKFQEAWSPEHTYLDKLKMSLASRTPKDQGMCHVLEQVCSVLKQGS
UniProt Q3U0V1: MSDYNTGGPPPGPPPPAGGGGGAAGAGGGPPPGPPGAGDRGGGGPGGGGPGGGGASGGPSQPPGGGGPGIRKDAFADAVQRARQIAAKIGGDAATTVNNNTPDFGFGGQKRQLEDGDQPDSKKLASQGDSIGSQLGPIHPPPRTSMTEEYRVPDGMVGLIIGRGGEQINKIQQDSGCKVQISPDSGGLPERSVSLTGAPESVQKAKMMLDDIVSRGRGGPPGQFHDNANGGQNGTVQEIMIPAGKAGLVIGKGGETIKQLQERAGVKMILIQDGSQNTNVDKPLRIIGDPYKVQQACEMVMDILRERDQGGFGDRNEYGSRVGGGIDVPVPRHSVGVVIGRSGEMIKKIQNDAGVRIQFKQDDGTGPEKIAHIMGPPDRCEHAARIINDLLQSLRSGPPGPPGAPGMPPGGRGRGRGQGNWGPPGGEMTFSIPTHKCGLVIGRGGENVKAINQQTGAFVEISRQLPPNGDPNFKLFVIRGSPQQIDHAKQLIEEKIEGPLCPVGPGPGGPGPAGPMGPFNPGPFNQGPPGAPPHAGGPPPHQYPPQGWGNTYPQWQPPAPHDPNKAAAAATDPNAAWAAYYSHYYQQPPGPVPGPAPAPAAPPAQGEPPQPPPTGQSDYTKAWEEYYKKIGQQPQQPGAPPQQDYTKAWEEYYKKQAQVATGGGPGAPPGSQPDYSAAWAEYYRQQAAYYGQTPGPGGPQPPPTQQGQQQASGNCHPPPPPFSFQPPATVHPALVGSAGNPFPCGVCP
UniProt Q08288, whole entry: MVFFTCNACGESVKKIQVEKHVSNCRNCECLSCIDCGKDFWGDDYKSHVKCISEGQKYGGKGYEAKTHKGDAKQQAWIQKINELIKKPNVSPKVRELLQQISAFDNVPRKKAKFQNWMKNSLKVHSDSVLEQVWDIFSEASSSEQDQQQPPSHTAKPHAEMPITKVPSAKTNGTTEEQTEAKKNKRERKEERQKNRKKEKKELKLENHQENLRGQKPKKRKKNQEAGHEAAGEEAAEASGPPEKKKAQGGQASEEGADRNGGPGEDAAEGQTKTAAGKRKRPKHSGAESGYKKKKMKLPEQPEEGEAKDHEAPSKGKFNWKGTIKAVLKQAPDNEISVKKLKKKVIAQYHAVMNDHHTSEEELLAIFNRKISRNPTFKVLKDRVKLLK
UniProt Q07231: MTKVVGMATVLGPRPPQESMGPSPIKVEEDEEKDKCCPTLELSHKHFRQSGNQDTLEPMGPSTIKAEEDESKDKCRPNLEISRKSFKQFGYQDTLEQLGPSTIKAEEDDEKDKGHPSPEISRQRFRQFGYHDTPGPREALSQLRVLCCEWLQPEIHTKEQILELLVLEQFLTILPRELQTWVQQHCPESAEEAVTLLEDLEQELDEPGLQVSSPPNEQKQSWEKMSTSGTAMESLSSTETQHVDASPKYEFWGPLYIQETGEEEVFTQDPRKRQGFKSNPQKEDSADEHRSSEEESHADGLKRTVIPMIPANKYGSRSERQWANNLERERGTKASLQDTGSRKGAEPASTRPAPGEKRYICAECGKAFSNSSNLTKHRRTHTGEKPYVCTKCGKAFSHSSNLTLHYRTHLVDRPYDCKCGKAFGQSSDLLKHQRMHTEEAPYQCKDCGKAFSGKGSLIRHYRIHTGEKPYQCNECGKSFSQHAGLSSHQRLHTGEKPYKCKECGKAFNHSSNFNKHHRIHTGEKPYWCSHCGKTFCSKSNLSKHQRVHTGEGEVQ
UniProt Q3U1Z5: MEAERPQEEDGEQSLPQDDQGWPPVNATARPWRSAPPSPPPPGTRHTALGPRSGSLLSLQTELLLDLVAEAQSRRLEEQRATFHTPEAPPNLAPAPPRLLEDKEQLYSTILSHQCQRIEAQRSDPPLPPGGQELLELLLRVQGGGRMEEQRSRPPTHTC
UniProt Q07813, whole entry: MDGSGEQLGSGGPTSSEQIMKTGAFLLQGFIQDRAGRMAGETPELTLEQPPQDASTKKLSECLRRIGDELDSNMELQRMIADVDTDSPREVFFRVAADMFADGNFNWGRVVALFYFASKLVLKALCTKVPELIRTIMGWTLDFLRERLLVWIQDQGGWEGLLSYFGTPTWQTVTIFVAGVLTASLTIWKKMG
UniProt Q3HNM7: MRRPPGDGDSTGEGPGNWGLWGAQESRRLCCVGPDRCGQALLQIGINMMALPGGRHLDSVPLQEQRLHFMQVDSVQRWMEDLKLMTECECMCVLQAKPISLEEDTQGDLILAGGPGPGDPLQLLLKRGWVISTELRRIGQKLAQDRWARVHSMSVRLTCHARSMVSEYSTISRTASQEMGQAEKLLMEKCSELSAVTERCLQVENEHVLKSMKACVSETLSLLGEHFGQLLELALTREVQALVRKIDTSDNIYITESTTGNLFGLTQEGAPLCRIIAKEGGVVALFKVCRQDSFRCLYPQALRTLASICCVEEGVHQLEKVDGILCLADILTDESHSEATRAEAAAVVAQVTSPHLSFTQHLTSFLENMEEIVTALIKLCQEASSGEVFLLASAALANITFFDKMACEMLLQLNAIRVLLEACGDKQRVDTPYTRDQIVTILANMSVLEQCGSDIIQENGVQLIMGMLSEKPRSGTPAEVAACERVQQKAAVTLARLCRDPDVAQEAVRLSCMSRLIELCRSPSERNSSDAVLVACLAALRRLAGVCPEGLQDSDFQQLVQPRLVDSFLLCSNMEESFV
UniProt Q08761: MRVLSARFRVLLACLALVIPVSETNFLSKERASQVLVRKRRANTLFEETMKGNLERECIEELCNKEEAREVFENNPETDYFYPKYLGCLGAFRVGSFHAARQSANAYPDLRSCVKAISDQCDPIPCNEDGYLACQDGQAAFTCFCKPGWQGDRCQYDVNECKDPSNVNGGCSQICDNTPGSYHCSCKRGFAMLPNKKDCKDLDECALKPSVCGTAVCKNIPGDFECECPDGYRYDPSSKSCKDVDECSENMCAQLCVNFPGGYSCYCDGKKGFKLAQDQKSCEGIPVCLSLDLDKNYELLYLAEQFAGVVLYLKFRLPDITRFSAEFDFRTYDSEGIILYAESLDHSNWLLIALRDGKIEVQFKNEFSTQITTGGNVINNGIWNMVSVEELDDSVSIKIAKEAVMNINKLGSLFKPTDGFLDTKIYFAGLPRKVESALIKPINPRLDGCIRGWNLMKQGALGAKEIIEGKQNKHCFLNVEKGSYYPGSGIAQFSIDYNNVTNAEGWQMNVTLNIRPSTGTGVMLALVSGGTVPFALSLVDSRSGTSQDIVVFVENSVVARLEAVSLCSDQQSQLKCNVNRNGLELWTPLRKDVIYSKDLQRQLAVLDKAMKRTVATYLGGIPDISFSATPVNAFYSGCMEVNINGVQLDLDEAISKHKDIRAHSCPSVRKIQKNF
UniProt Q14BJ1: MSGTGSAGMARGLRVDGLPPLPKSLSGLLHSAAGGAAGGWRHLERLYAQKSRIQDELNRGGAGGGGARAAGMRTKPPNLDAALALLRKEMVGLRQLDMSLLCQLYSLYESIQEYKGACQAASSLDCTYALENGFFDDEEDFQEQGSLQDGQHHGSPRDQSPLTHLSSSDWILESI
UniProt Q3TDE8: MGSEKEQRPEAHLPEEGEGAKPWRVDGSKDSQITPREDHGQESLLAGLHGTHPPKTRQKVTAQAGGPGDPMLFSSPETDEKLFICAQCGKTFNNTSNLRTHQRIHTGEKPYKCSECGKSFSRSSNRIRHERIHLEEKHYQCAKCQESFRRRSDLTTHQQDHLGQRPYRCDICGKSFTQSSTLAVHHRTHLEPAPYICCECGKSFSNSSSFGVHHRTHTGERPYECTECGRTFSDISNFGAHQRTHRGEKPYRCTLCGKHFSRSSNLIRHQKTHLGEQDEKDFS

Compound in the experiment: CN[C@@H]1C[C@H]2O[C@@](C)([C@@H]1OC)n1c3ccccc3c3c4c(c5c6ccccc6n2c5c31)C(=O)NC4 [staurosporine]
The experiment can be described thus: log2 fold change of tryptic peptide abundance, ligand vs vehicle (limited proteolysis) (log2 ratio); higher = more trypsin-susceptible (destabilized). To be noted: ligand concentration: 20 uM; sample: mouse liver crude lysate; replicate design: treated separately.

Some of the results follow. Most entries show no effect beyond the scatter of the controls.

In the case of “UniProt Q3U2S4 (peptide sequence: ESYLQWLR, peptide start residue: 400)”, the log2 fold change is -0.374.
Consider “UniProt Q14DQ1 (peptide sequence: LGERPPPAMEKR, peptide start residue: 45)”, for which the log2 fold change was -0.132.
Consider “UniProt Q3TRM4 (peptide sequence: VVSTSGTEDTSK, peptide start residue: 354)”, for which the log2 fold change is -0.128.
The figure for “UniProt Q3TGF2 (peptide sequence: LEQLELEKQK, peptide start residue: 91)” is 0.197; for “UniProt Q3TV65 (peptide sequence: MDKVPVPIRYCMLGSR, peptide start residue: 217)” it is -0.192.
The figure for “UniProt Q1W617 (peptide sequence: IKLGEEQLK, peptide start residue: 1454)” is 0.124.
The figure for “UniProt Q3U0V1 (peptide sequence: MMLDDIVSR, peptide start residue: 207)” is 0.133; for “UniProt Q2EMV9 (peptide sequence: FRVLFSPEDVR, peptide start residue: 54)” it is -0.262.
Consider “UniProt Q3U0S6 (peptide sequence: VLADAERPLLVQDLWR, peptide start residue: 222)”, for which the log2 fold change was -0.178.
For the target “UniProt Q3SXB8 (peptide sequence: VFIGINDLEK, peptide start residue: 202)”, the log2 fold change is -0.23.
The figure for “UniProt Q3TKY6 (peptide sequence: NEKPEEEVKK, peptide start residue: 184)” is -0.464; for “UniProt Q14CH7 (peptide sequence: QTLGPTTEQR, peptide start residue: 639)” it is 0.185.
Take “UniProt Q08288 (peptide sequence: TNGTTEEQTEAKK, peptide start residue: 171)”: the log2 fold change was -0.397.
The figure for “UniProt Q07231 (peptide sequence: IHTGEKPYQCNECGK, peptide start residue: 463)” is 0.341; for “UniProt Q3U1Z5 (peptide sequence: ATFHTPEAPPNLAPAPPR, peptide start residue: 81)” it is 0.104.
The figure for “UniProt Q3TLD5 (peptide sequence: MSDAAGDFVDIR, peptide start residue: 149)” is 0.27; for “UniProt Q07813 (peptide sequence: RIGDELDSNMELQR, peptide start residue: 65)” it is -0.143.
In the case of “UniProt Q3U308 (peptide sequence: CVKCAEGLPVVVIR, peptide start residue: 28)”, the log2 fold change was 0.47.
The figure for “UniProt Q3HNM7 (peptide sequence: LCRDPDVAQEAVR, peptide start residue: 497)” is -0.426.
Turning to “UniProt Q08761 (peptide sequence: GFAMLPNKKDCK, peptide start residue: 189)”, the log2 fold change amounted to 0.283.
The result for “UniProt Q14BJ1 (peptide sequence: SLSGLLHSAAGGAAGGWR, peptide start residue: 24)” reads -0.226.
The result for “UniProt Q1HFZ0 (peptide sequence: EILHCLK, peptide start residue: 89)” reads 0.182; that for “UniProt Q3TDE8 (peptide sequence: EQRPEAHLPEEGEGAKPWR, peptide start residue: 6)”, 0.302; that for “UniProt Q02780 (peptide sequence: RSLPSTSSTSSTK, peptide start residue: 287)”, 0.756.
